PubChem BioAssay AID1224826 – NIAID | 2016

- Screen: 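Knock-downs that raise or lower Tnf reporter signal after endotoxin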 (primary screen)
- Cells: RAW264.7 G9 macrophages from mouse bearing reporters for p65 (GFP) and the Tnf promoter (mCherry)
- Knock-down reagent: siRNA pool against mouse genes, 100 nM
- Time to read-out: 16 h of LPS stimulation, after 2 days of siRNA transfection
- Conditions: bacterial lipopolysaccharide (Salmonella minnesota R595), 10 ng/ml
- Measurement: 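Imaged Tnf reporter mCherry in nuclei, minus background, normalised per plate to the median and expressed as robust z-scores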
- Scale: Tnf reporter robust z-score: higher = stronger Tnf promoter reporter signal after LPS
- Rule for the call: 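a well counts as active at a score of -1.3 or below (Tlr4 knock-down control median) or above 3 (raised signal); controls and wells holding fewer than 50 cells are excluded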
- Calls: active = Tnf reporter clearly lowered or raised; inactive = no clear change in Tnf reporter
This is an unselected part of about 17,000 deposited reagents. About 1,110 of all reagents (6.6%) count as active. 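Active means lowered or raised reporter signal; replicate intensities are raw and not normalised per plate.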 Entries without a mark were called inactive. Further read-outs or replicates are left out here. No sequences are given here.

| gene | Tnf reporter robust z-score | fewer than 50 cells in well |
| --- | --- | --- |
| Xylb (GeneID 102448) | 0.89 | enough cells in well |
| Brdt (GeneID 114642) | -1.08 | enough cells in well |
| Slfn2 (GeneID 20556) | – | fewer than 50 cells per well; well left out of calls |
| Dmtf1 (GeneID 23857) | – | fewer than 50 cells per well; well left out of calls |
| Vmn1r18 (GeneID 171199) | 0.15 | enough cells in well |
| Timm10b (GeneID 14356) | -1.18 | enough cells in well |
| Sft2d1 (GeneID 106489) | 0.36 | enough cells in well |
| Rnf112 (GeneID 22671) | 0.74 | enough cells in well |
| Mrpl3 (GeneID 94062) | 2.27 | enough cells in well |
| Katnbl1 (GeneID 72425) | -0.69 | enough cells in well |
| Vps37a (GeneID 52348) | 0.01 | enough cells in well |
| B4galt1 (GeneID 14595) | 0.47 | enough cells in well |
| Fbxo28 (GeneID 67948) | 2.06 | enough cells in well |
| Gpatch2l (GeneID 70373) | – | fewer than 50 cells per well; well left out of calls |
| Sbsn (GeneID 282619) | -0.92 | enough cells in well |
| Rasa2 (GeneID 114713) | 0.35 | enough cells in well |
| Serpinb9f (GeneID 20709) | – | fewer than 50 cells per well; well left out of calls |
| Cyp3a44 (GeneID 337924) | 0.03 | enough cells in well |
| Hpcal4 (GeneID 170638) | -0.26 | enough cells in well |
| Tdrd1 (GeneID 83561) | 4.61 (active) | enough cells in well |
| Polr2j (GeneID 20022) | – | fewer than 50 cells per well; well left out of calls |
| Or1e34 (GeneID 259009) | -0.91 | enough cells in well |
| Pik3ap1 (GeneID 83490) | -0.48 | enough cells in well |
| Ift172 (GeneID 67661) | -0.39 | enough cells in well |
| Relt (GeneID 320100) | 0.9 | enough cells in well |
| Il17c (GeneID 234836) | -0.73 | enough cells in well |
| Plg (GeneID 18815) | -0.5 | enough cells in well |
| 9330154K18Rik (GeneID 319829) | -0.3 | enough cells in well |
| Jmjd4 (GeneID 194952) | -0.3 | enough cells in well |
| Gadd45gip1 (GeneID 102060) | 0.41 | enough cells in well |
| Rin2 (GeneID 74030) | 0.02 | enough cells in well |
| Loxhd1 (GeneID 240411) | – | fewer than 50 cells per well; well left out of calls |
| Fgf2os (GeneID 329626) | -0.73 | enough cells in well |
| Tas1r1 (GeneID 110326) | 1.53 | enough cells in well |
| Tgm6 (GeneID 241636) | 1.35 | enough cells in well |
| Rer1 (GeneID 67830) | – | fewer than 50 cells per well; well left out of calls |
| Rrm2 (GeneID 20135) | -1.48 (active) | enough cells in well |
| Zfp346 (GeneID 26919) | 2.32 | enough cells in well |
| Slc25a15 (GeneID 18408) | 0.01 | enough cells in well |
| Krtap3-2 (GeneID 66708) | 1.51 | enough cells in well |
| Plcxd1 (GeneID 403178) | -0.19 | enough cells in well |
| Abca9 (GeneID 217262) | 0.44 | enough cells in well |
| Plekhh3 (GeneID 217198) | 0.46 | enough cells in well |
| Hpca (GeneID 15444) | -1.25 | enough cells in well |
| Tnr (GeneID 21960) | -0.97 | enough cells in well |
| Or7a39 (GeneID 257734) | 0.26 | enough cells in well |
| Morn2 (GeneID 378462) | 0.67 | enough cells in well |
| Evi5 (GeneID 14020) | 0.16 | enough cells in well |
| Galnt10 (GeneID 171212) | -0.84 | enough cells in well |

Hits, of those listed so far:
| gene | Tnf reporter robust z-score | fewer than 50 cells in well |
| --- | --- | --- |
| Tdrd1 (GeneID 83561) | 4.61 (active) | enough cells in well |
| Rrm2 (GeneID 20135) | -1.48 (active) | enough cells in well |

Continued:
| gene | Tnf reporter robust z-score | fewer than 50 cells in well |
| --- | --- | --- |
| Trim67 (GeneID 330863) | -0.65 | enough cells in well |
| Rbck1 (GeneID 24105) | 1.13 | enough cells in well |
| Cdk18 (GeneID 18557) | -1.22 | enough cells in well |
| Pknox2 (GeneID 208076) | 0.12 | enough cells in well |
| Arih1 (GeneID 23806) | 0.87 | enough cells in well |
| Slc34a2 (GeneID 20531) | – | fewer than 50 cells per well; well left out of calls |
| Usp31 (GeneID 76179) | – | fewer than 50 cells per well; well left out of calls |
| Zfp39 (GeneID 22698) | -0.25 | enough cells in well |
| 1700009J07Rik (GeneID 75188) | 1.96 | enough cells in well |
| Prap1 (GeneID 22264) | – | fewer than 50 cells per well; well left out of calls |
| Hells (GeneID 15201) | 0.15 | enough cells in well |
| Coro1b (GeneID 23789) | -0.25 | enough cells in well |
| Cyp1a2 (GeneID 13077) | 0.86 | enough cells in well |
| Or13c7 (GeneID 29845) | 0.12 | enough cells in well |
| Rp1 (GeneID 19888) | 0.08 | enough cells in well |
| Lrriq3 (GeneID 74435) | 0.58 | enough cells in well |
| Kcnb1 (GeneID 16500) | 0.62 | enough cells in well |
| Or52n3 (GeneID 258810) | 0.1 | enough cells in well |
| Pdgfra (GeneID 18595) | 1.69 | enough cells in well |
| Or8g26 (GeneID 258323) | -1.21 | enough cells in well |
| Irs1 (GeneID 16367) | -0.38 | enough cells in well |
| Aldh16a1 (GeneID 69748) | – | fewer than 50 cells per well; well left out of calls |
| Ccl3 (GeneID 20302) | -0.26 | enough cells in well |
| Nyap2 (GeneID 241134) | -0.04 | enough cells in well |
| Gad1 (GeneID 14415) | -0.7 | enough cells in well |
| Slc25a27 (GeneID 74011) | -0.39 | enough cells in well |
